Data as given in PubChem BioAssay AID1259291 (Sanger Institute, 2017)
Assay: 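Search for gene knock-downs that act synergistically alongside anchor drugs to kill cells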 (primary screen). Cell system: HT29 human colorectal cancer cells. Reagents: siRNA pool against human genes. Challenge: anchor drugs added a day after transfection: BYL719 at 1 µM, cetuximab at 5 µg/ml or trametinib at 10 nM, or DMSO vehicle alone. Measured: 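Replicate-averaged viability relative to non-targeting pool, robust z-score based on control wells, plus per-drug synergy score for 1 µM BYL719, 5 µg/ml cetuximab and 10 nM trametinib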. Direction: robust z-score, knock-down alone: higher = more viable cells. Call rule: 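a knock-down alone scoring under -3 on robust z-score is called essential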. Calls: active = essential (knock-down alone); inactive = no change alone.
In all, the deposit lists 794 reagents; below is a part drawn at random. 15 of them (1.9%) were called active. 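Calls rest on knock-down alone; drug synergy scores do not affect them; drugs added a day post-transfection, DMSO vehicle as comparison.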 Further read-outs or replicates are left out here. Not stated in the record: the amount of reagent, the time to read-out.

target gene | robust z-score, knock-down alone | outcome
IKBKB | 0.106 | inactive
MAPK11 | 0.552 | inactive
SRPK2 | 0.295 | inactive
WIPF1 | 0.552 | inactive
MAPK4 | 0.552 | inactive
MAPKAPK5 | 0.0593 | inactive
CDKL4 | 0.552 | inactive
MYLK | 0.552 | inactive
MYO3B | 0.552 | inactive
LIMK2 | 0.552 | inactive
CALM1 | 0.552 | inactive
TAOK1 | 0.552 | inactive
NR2F2 | 0.552 | inactive
CHD4 | -0.785 | inactive
MAP3K6 | 0.189 | inactive
PRKCI | -0.301 | inactive
FGR | -2.3 | inactive
EIF2AK2 | -0.17 | inactive
PBK | 0.552 | inactive
PHKB | 0.31 | inactive
DDR2 | 0.218 | inactive
AGK | 0.552 | inactive
ANKK1 | 0.552 | inactive
PAK4 | 0.552 | inactive
PIK3C2B | 0.552 | inactive
TP53 | -1.07 | inactive
MGA | -1.73 | inactive

A run of entries from the list above, for reference:
target gene | robust z-score, knock-down alone | outcome
AGK | 0.552 | inactive
ANKK1 | 0.552 | inactive
PAK4 | 0.552 | inactive
PIK3C2B | 0.552 | inactive
TP53 | -1.07 | inactive
MGA | -1.73 | inactive

The listing continues:
target gene | robust z-score, knock-down alone | outcome
ACVR1 | 0.552 | inactive
ACVR1C | 0.552 | inactive
NEK9 | -0.147 | inactive
DCK | -1.6 | inactive
BRD2 | 0.552 | inactive
FGFR4 | 0.552 | inactive
BRSK2 | 0.552 | inactive
PIM3 | -0.83 | inactive
AK5 | 0.552 | inactive
EIF2AK4 | -0.516 | inactive
PTK7 | 0.552 | inactive
PDK1 | 0.552 | inactive
SKAP1 | 0.552 | inactive
PDGFRL | 0.552 | inactive
PRKD1 | 0.552 | inactive
CSNK2A2 | 0.552 | inactive
TEK | 0.552 | inactive
PFKFB1 | 0.552 | inactive
DGKK | 0.167 | inactive
CSNK1G3 | 0.552 | inactive
CDK10 | 0.337 | inactive
YES1 | 0.552 | inactive
PI4KA | -2.32 | inactive
